Square brackets hold non-standard residues; d marks the D form. Peptide text beside a SMILES is read from it. Gly(N-(CH2)6NH2) = NCCCCCCNCC(=O)O; Gly(N-2-aminoethyl) = NCCNCC(=O)O; Nspe = C[C@H](NCC(=O)O)c1ccccc1; NhArg = N=C(N)NCCCCNCC(=O)O; Nphe = O=C(O)CNCc1ccccc1; Nlys = NCCCCNCC(=O)O
Tested on: Escherichia coli K-12 wild-type strain (W3110/ATCC27325)
Assay type: cell-based
Conditions: for Selectivity Index HaCaT, E. coli: ED50 HaCaT / MIC E. coli; for Selectivity Index HepG2, E. coli: ED50 HepG2 / MIC E. coli; for Average selectivity E. coli: average of selectivity to HaCaT and HepG2, selectivity = toxicity/activity
Method: (§1) Escherichia coli K-12 wild-type strain (W3110/ATCC27325, F^–, λ^–, rpoS(Am), rph-1, Inv(rrnD-rrnE)), Pseudomonas aeruginosa PA01 (ATCC 15692) Staphylococcus aureus (3R7089 strain Oxford/ATCC9144) and Staphylococcus epidermidis (laboratory strain from clinical isolate) were selected for bacteriological studies as representative Gram-negative (E. coli and P. aeruginosa) and Gram-positive (S. aureus and S. epidermidis) species. Bacterial cultures were prepared by streaking bacterial strains onto LB agar plates with an inoculation loop and incubated overnight at 37 °C. A single colony was selected and placed in 5 mL of Iso-sensitest broth (Oxoid, ThermoScientific) and incubated with shaking for 16–18 h at 37 °C to provide liquid cultures for testing.
MIC values were obtained according to the protocol described by J. M. Andrews et al.[58] and were conducted in 96-well plates (Sarstedt). Bacteria were grown from overnight cultures in Iso-sensitest broth to an A650nm of 0.07 equivalent to a 0.5 MacFarland standard (240 μM BaCl2 in 0.18 M H2SO4). This culture was diluted ten-fold with Iso-sensitest broth before use. Peptoids were initially dissolved in DMSO (5 mM) and diluted further in Iso-sensitest broth to achieve a concentration range of 4–200 μM using 2-fold serial dilutions. 50 μl of inoculum and 50 μl of peptoid solution were added to each test well (final concentration range of 2–100 μM). Experiments were performed in triplicate. A positive control for bacterial growth contained only the inoculum and Iso-sensitest broth. Other controls contained the inoculum and serial dilutions of ampicillin (from 250 μg mL^–1 to 2 μg mL^–1), serial dilutions of DMSO and the inoculum to confirm no inhibitory effect on bacterial growth, and Iso-sensitest broth alone as a sterile control. […] Quantitative data was attained from absorbance values using a Biotek Synergy H4 plate reader.
Antibacterial MIC determination
as §1, with “(W3110 / ATCC27325, F-, λ-,” for “(W3110/ATCC27325, F^–, λ^–,”, “Oxford / ATCC9144)” for “Oxford/ATCC9144)”, “°C.” for “°C. A single colony was selected and placed in 5 mL of Iso-sensitest broth (Oxoid, ThermoScientific) and incubated with shaking for 16–18 h at 37 °C to provide liquid cultures for testing.”
A single colony was selected and placed in 5 mL of Iso-sensitest broth (Oxoid, ThermoScientific) and incubated with shaking for 16-18 h at 37 °C to provide liquid […]
MIC values were obtained according to the protocol described by J. M. Andrews et al.1 and were conducted in 96-well plates (Sarstedt). Bacteria were grown from overnight cultures in Iso-sensitest broth to an A650nm of 0.07 equivalent to a 0.5 MacFarland standard (240 μM BaCl2 in 0.18 M H2SO4). This culture was diluted ten-fold with Iso-sensitest broth before use. Peptoids were initially dissolved in DMSO (5 mM) and diluted further in Iso-sensitest broth to achieve a concentration range of 4 – 200 µM using 2-fold serial dilutions. 50 μl of inoculum and 50 μl of peptoid solution were added to each test well (final concentration range of 2 – 100 µM). Experiments were performed in triplicate. A positive control for bacterial growth contained only the inoculum and Iso-sensitest broth. Other controls contained the inoculum and serial dilutions of ampicillin (from 250 µg/mL to 2 µg/mL), serial dilutions of DMSO and the inoculum to confirm no inhibitory effect on bacterial growth, and Iso-sensitest broth alone as a sterile control. […]
growth after incubation at 37 °C for 16 h with shaking. Quantitative data was attained from absorbance values using a Biotek Synergy H4 plate reader.

| Compound | Selectivity Index HaCaT, E. coli | Selectivity Index HepG2, E. coli | Average selectivity E. coli |
| --- | --- | --- | --- |
| C[C@@H](c1ccccc1)N(CC(N)=O)C(=O)CN(C(=O)CN(CCCCN)C(=O)CN(Cc1ccc(F)cc1)C(=O)CN(Cc1ccc(F)cc1)C(=O)CN(CCCCN)C(=O)CN(C(=O)CN(C(=O)CNCCCCN)[C@@H](C)c1ccccc1)[C@@H](C)c1ccccc1)[C@@H](C)c1ccccc1 [Peptoid 29, (NLysNspeNspe)(NLysNpfbNpfb)(NLysNspeNspe)] | 5 | 3 | 4 |
| C[C@@H](c1ccccc1)N(CC(N)=O)C(=O)CN(C(=O)CN(CCCCNC(=N)N)C(=O)CN(C(=O)CN(C(=O)CN(CCCCNC(=N)N)C(=O)CN(C(=O)CN(C(=O)CN(CCCCN)C(=O)CN(C(=O)CN(C(=O)CNCCCCN)[C@@H](C)c1ccccc1)[C@@H](C)c1ccccc1)[C@@H](C)c1ccccc1)[C@@H](C)c1ccccc1)[C@@H](C)c1ccccc1)[C@@H](C)c1ccccc1)[C@@H](C)c1ccccc1 [Peptoid 41, (NLysNspeNspe)2(NhArgNspeNspe)2] (H-[Nlys][Nspe][Nspe][Nlys][Nspe][Nspe][NhArg][Nspe][Nspe][NhArg][Nspe][Nspe]-NH2) | > 6 |  | > 6 |
| NCCCCNCC(=O)N(CC(=O)N(CC(=O)N(CCCCN)CC(=O)N(CC(=O)N(CC(=O)N(CCCCN)CC(=O)N(CC(=O)N(CC(=O)N(CCCCN)CC(=O)N(CC(=O)N(CC(N)=O)Cc1ccccc1)Cc1ccccc1)Cc1ccccc1)Cc1ccccc1)Cc1ccccc1)Cc1ccccc1)Cc1ccccc1)Cc1ccccc1 [Peptoid 4, (NLysNpheNphe)4] (H-[Nlys][Nphe][Nphe][Nlys][Nphe][Nphe][Nlys][Nphe][Nphe][Nlys][Nphe][Nphe]-NH2) | 3 | > 8 |  |
| NCCNCC(=O)N(CC(=O)N(CC(=O)N(CCN)CC(=O)N(CC(=O)N(CC(=O)N(CCN)CC(=O)N(CC(=O)N(CC(=O)N(CCN)CC(=O)N(CC(=O)N(CC(N)=O)Cc1ccccc1)Cc1ccccc1)Cc1ccccc1)Cc1ccccc1)Cc1ccccc1)Cc1ccccc1)Cc1ccccc1)Cc1ccccc1 [Peptoid 7, (NaeNpheNphe)4] (H-[Gly(N-2-aminoethyl)][Nphe][Nphe][Gly(N-2-aminoethyl)][Nphe][Nphe][Gly(N-2-aminoethyl)][Nphe][Nphe][Gly(N-2-aminoethyl)][Nphe][Nphe]-NH2) | > 8 | > 8 | > 8 |
| C[C@@H](c1ccccc1)N(CC(N)=O)C(=O)CN(C(=O)CN(CCCCCCN)C(=O)CN(C(=O)CN(C(=O)CN(CCCCCCN)C(=O)CN(C(=O)CN(C(=O)CNCCCCCCN)[C@@H](C)c1ccccc1)[C@@H](C)c1ccccc1)[C@@H](C)c1ccccc1)[C@@H](C)c1ccccc1)[C@@H](C)c1ccccc1 [Peptoid 11, (NahNspeNspe)3] (H-[Gly(N-(CH2)6NH2)][Nspe][Nspe][Gly(N-(CH2)6NH2)][Nspe][Nspe][Gly(N-(CH2)6NH2)][Nspe][Nspe]-NH2) | > 4 | > 4 |  |
| C[C@@H](c1ccccc1)N(CC(N)=O)C(=O)CN(C(=O)CN(CCN)C(=O)CN(C(=O)CN(C(=O)CN(CCN)C(=O)CN(C(=O)CN(C(=O)CNCCN)[C@@H](C)c1ccccc1)[C@@H](C)c1ccccc1)[C@@H](C)c1ccccc1)[C@@H](C)c1ccccc1)[C@@H](C)c1ccccc1 [Peptoid 17, (NaeNspeNspe)3] | > 4 | > 4 | > 4 |
| C[C@@H](c1ccccc1)N(CC(N)=O)C(=O)CN(C(=O)CN(CCCCN)C(=O)CN(C(=O)CN(C(=O)CN(CCCCN)C(=O)CN(C(=O)CN(C(=O)CNCCCCN)[C@@H](C)c1ccccc1)[C@@H](C)c1ccccc1)[C@@H](C)c1ccccc1)[C@@H](C)c1ccccc1)[C@@H](C)c1ccccc1 [Peptoid 14, (NLysNspeNspe)3] (H-[Nlys][Nspe][Nspe][Nlys][Nspe][Nspe][Nlys][Nspe][Nspe]-NH2) | > 8 | > 8 | > 8 |
| (NhArgNmfbNmfb)4 [Peptoid 36] | 2 | 2 | 2 |
| C[C@@H](c1ccccc1)N(CC(N)=O)C(=O)CN(Cc1ccc(F)cc1)C(=O)CN(CCCCN)C(=O)CN(C(=O)CN(Cc1ccc(F)cc1)C(=O)CN(CCCCN)C(=O)CN(C(=O)CN(Cc1ccc(F)cc1)C(=O)CNCCCCN)[C@@H](C)c1ccccc1)[C@@H](C)c1ccccc1 [Peptoid 27, (NLysNpfbNspe)3] | 2 | 1 | 2 |
| NCCCCCCNCC(=O)N(CC(=O)N(CC(=O)N(CCCCCCN)CC(=O)N(CC(=O)N(CC(=O)N(CCCCCCN)CC(=O)N(CC(=O)N(CC(N)=O)Cc1ccccc1)Cc1ccccc1)Cc1ccccc1)Cc1ccccc1)Cc1ccccc1)Cc1ccccc1 [Peptoid 2, (NahNpheNphe)3] (H-[Gly(N-(CH2)6NH2)][Nphe][Nphe][Gly(N-(CH2)6NH2)][Nphe][Nphe][Gly(N-(CH2)6NH2)][Nphe][Nphe]-NH2) | > 2 | > 2 |  |
| NCCCCCCNCC(=O)N(CC(=O)N(CC(=O)N(CCCCCCN)CC(=O)N(CC(=O)N(CC(=O)N(CCCCCCN)CC(=O)N(CC(=O)N(CC(=O)N(CCCCCCN)CC(=O)N(CC(=O)N(CC(N)=O)Cc1ccccc1)Cc1ccccc1)Cc1ccccc1)Cc1ccccc1)Cc1ccccc1)Cc1ccccc1)Cc1ccccc1)Cc1ccccc1 [Peptoid 1, (NahNpheNphe)4] (H-[Gly(N-(CH2)6NH2)][Nphe][Nphe][Gly(N-(CH2)6NH2)][Nphe][Nphe][Gly(N-(CH2)6NH2)][Nphe][Nphe][Gly(N-(CH2)6NH2)][Nphe][Nphe]-NH2) | > 8 | > 8 |  |
| NCCCCNCC(=O)N(CC(=O)N(CC(=O)N(CCCCN)CC(=O)N(CC(=O)N(CC(=O)N(CCCCN)CC(=O)N(CC(=O)N(CC(N)=O)Cc1cccc(F)c1)Cc1cccc(F)c1)Cc1cccc(F)c1)Cc1cccc(F)c1)Cc1cccc(F)c1)Cc1cccc(F)c1 [Peptoid 25, (NLysNmfbNmfb)3] | 5 |  |  |
| C[C@@H](c1ccccc1)N(CC(N)=O)C(=O)CN(C(=O)CN(CCCCN)C(=O)CN(Cc1ccc(F)cc1)C(=O)CN(Cc1ccc(F)cc1)C(=O)CN(CCCCN)C(=O)CN(C(=O)CN(C(=O)CN(CCCCN)C(=O)CN(Cc1ccc(F)cc1)C(=O)CN(Cc1ccc(F)cc1)C(=O)CNCCCCN)[C@@H](C)c1ccccc1)[C@@H](C)c1ccccc1)[C@@H](C)c1ccccc1 [Peptoid 28, [(NLysNpfbNpfb)(NLysNspeNspe)]2] | > 17 | 9 | > 13 |
| N=C(N)NCCCCNCC(=O)N(CC(=O)N(CC(=O)N(CCCCNC(=N)N)CC(=O)N(CC(=O)N(CC(=O)N(CCCCNC(=N)N)CC(=O)N(CC(=O)N(CC(=O)N(CCCCNC(=N)N)CC(=O)N(CC(=O)N(CC(N)=O)Cc1ccccc1)Cc1ccccc1)Cc1ccccc1)Cc1ccccc1)Cc1ccccc1)Cc1ccccc1)Cc1ccccc1)Cc1ccccc1 [Peptoid 33, (NhArgNpheNphe)4] (H-[NhArg][Nphe][Nphe][NhArg][Nphe][Nphe][NhArg][Nphe][Nphe][NhArg][Nphe][Nphe]-NH2) | > 17 |  | > 17 |

From PMC6072100, “Exploring the links between peptoid antibacterial activity and toxicity” (MedChemComm, 2017)
